Data taken from the supplement of paper PMC12889115.
This is one part of the list. Values are raw readings; no control value is given beside them.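 Primary screen: polymyxin B was added at a level permeabilizing Salmonella outer membranes while sparing inner membranes. DMSO wells, both with and without polymyxin B, established maximum growth. Plate-to-plate variation meant each plate was ranked on its own, and the lowest-OD600 compounds were selected as hits.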

Test system: Salmonella enterica serovar Typhimurium SL1344
Experiment: bacterial growth OD600 after 18 h with compound and polymyxin B; higher = more bacterial growth (less inhibition)
Details: 50 µM, Mueller-Hinton broth

Row | Compound | bacterial growth OD600 (polymyxin B 0.75 µg/mL) | bacterial growth OD600 (polymyxin B 1 µg/mL)
1 | CCCCc1nc2cc(C(=O)N3CCN(C)C(c4ccccc4)C3)ccc2o1 (configuration not stated) | 0.827 | –
2 | CCOC(=O)C1(Cc2ccc(F)cc2F)CCCN(C(=O)c2ccsc2)C1 (configuration not stated) | – | 1.09
3 | CCn1cc(CN2CCCC2C(=O)Nc2ccc(-n3ccnc3C)cc2)c(C)n1 (configuration not stated) | 0.868 | –
4 | COCCNC(=O)C1CCN(c2nc(C)c3cc(C)c(C)cc3n2)CC1 | 0.834 | –
5 | COCCN(C)Cc1cn(Cc2ccccc2)nc1-c1cc2ccccc2o1 | – | 0.949
6 | Cc1nc(N2CCCCCCC2)ncc1C(C)NC(=O)c1cnccn1 (configuration not stated) | 0.733 | –
7 | COc1cc(CC2(CCC(=O)NCc3cc4cc(Cl)ccc4[nH]3)CCC(=O)N2)ccc1F (configuration not stated) | 0.881 | –
8 | Cc1nc(N2CCC(NCC3COc4ccccc4O3)CC2)nc2ccc(F)cc12 (configuration not stated) | 0.01 | –
9 | COc1ccc(CC(=O)NCc2nc(-c3ccc(NC(=O)Cc4ccccc4)cc3)oc2C)cc1 | 0.773 | –
10 | COc1ccc(-c2noc(CN3CCCCC3c3ccc(F)cc3)n2)cc1 (configuration not stated) | – | 0.561
11 | O=C(CC1CCC(=O)N1)NCc1ccc2[nH]c3c(c2c1)CCCCC3 (configuration not stated) | – | 0.914
12 | COc1cc(Cl)cc([C@@H]2C[C@H]3CN(C4CCCC4)C(=O)[C@]34CCCN24)c1OC | – | 0.004
13 | COc1ccc(C2(CC(=O)N3CCCC(COc4ccccc4F)C3)CC(=O)N(C3CC3)C2=O)cc1 (configuration not stated) | 0.753 | –
14 | COCCOC1CCN(C(=O)c2cc(COc3ccc(F)cc3F)on2)CC1 | – | 0.889
15 | O=C(NC1CCCN(CCc2ccccc2)C1)c1ccc(Cl)cc1F (configuration not stated) | 0.682 | –
16 | CSc1cccc(CNC2CCCN(c3ncccn3)C2)c1 (configuration not stated) | – | 1.12

Row | Compound | bacterial growth OD600 (polymyxin B 0.75 µg/mL) | bacterial growth OD600 (polymyxin B 1 µg/mL)
17 | CCOC(=O)C1(Cc2ccc(F)cc2)CCCN(C(=O)c2ccc(OC)cc2OC)C1 (configuration not stated) | – | 0.909
18 | CC(=O)NC(C)c1cnc(N(C)C2CCCCC2)nc1C (configuration not stated) | – | 0.806
19 | CN(Cc1cccnc1)C(=O)c1csc2nc(-c3ccccc3Cl)cn12 | – | 0.345
20 | CCn1nc(C)cc1C(=O)N1CCC(C(Cc2ccccc2F)N(C)C(=O)c2ccsc2)CC1 (configuration not stated) | 0.008 | –
21 | COc1ccccc1C1(CC(=O)N2CCCC2c2nccs2)CC(=O)N(C2CCCC2)C1=O (configuration not stated) | 0.558 | –
22 | c1ccc(Oc2ncccc2CNCc2cccc(-n3cccn3)c2)cc1 | – | 0.955
23 | Cc1cnccc1CN(C)c1ccc(-c2nc(Cc3ccccc3)no2)cn1 | 0.47 | –
24 | C=CCCC(=O)NC1CC(=O)N(Cc2ccccc2C(F)(F)F)C1 (configuration not stated) | – | 0.873
25 | CSCC(=O)NC1CCCc2c1cnn2-c1ccc(C)c(C)c1 (configuration not stated) | 0.507 | –
26 | COc1ccc(CNC(=O)CCC2CCCN(C(=O)c3cc(C)[nH]n3)C2)c(OC)c1 (configuration not stated) | 0.777 | –
27 | Cc1oc(-c2ccc(NC(=O)Cc3ccccc3)cc2)nc1CNC(=O)Cn1c(=O)oc2ccccc21 | 0.848 | –
28 | COc1ccc(-c2nn(-c3ccccc3C)cc2CNCCNC(C)=O)cc1F | – | 0.822
29 | CC(C)Cn1cc(C(=O)N2CCCCCC2)c(=O)c(C(=O)N2CCCC(c3ccccc3)C2)c1 (configuration not stated) | 0.821 | –
30 | CN(CC1(O)CCCN(CC(C)(C)C)C1=O)C1CCCCC1 (configuration not stated) | – | 0.951
31 | Cc1cccc(-n2ncc3c2CCCC3NC(=O)C2(C(N)=O)CC2)c1C (configuration not stated) | – | 1.11
32 | Clc1ccc2c(c1)C=C(CNC1CCCN(c3ncccn3)C1)CO2 (configuration not stated) | – | 0.751

From no. 27 up to 28, as listed above:
Row | Compound | bacterial growth OD600 (polymyxin B 0.75 µg/mL) | bacterial growth OD600 (polymyxin B 1 µg/mL)
27 | Cc1oc(-c2ccc(NC(=O)Cc3ccccc3)cc2)nc1CNC(=O)Cn1c(=O)oc2ccccc21 | 0.848 | –
28 | COc1ccc(-c2nn(-c3ccccc3C)cc2CNCCNC(C)=O)cc1F | – | 0.822
